Source: patent US20170189504A1, “NOVEL PEPTIDES AND COMBINATION OF PEPTIDES FOR USE IN IMMUNOTHERAPY AGAINST VARIOUS CANCERS” (immatics biotechnologies GmbH, priority 2015, published 2017)

What was measured:
source genes (mRNA) = assay: Gene and exon expression of source genes, TCGA tumor samples compared with normal tissue samples (Lonsdale, 2013) (Table 17); parameters: species or system human; settings: for Over-expression category of source gene (target coverage), BLCA: BLCA = Bladder urothelial carcinoma (N = 408); for Over-expression category of source gene (target coverage), BLCA / Over-expression category of source gene (target coverage), CHOL / Over-expression category of source gene (target coverage), COAD / Over-expression category of source gene (target coverage), DLBC / Over-expression category of source gene (target coverage), ESCA / Over-expression category of source gene (target coverage), GBM / Over-expression category of source gene (target coverage), KICH / Over-expression category of source gene (target coverage), KIRC / Over-expression category of source gene (target coverage), KIRP / Over-expression category of source gene (target coverage), LAML / Over-expression category of source gene (target coverage), LGG / Over-expression category of source gene (target coverage), LIHC / Over-expression category of source gene (target coverage), LUAD / Over-expression category of source gene (target coverage), LUSC / Over-expression category of source gene (target coverage), OV / Over-expression category of source gene (target coverage), PAAD / Over-expression category of source gene (target coverage), PRAD / Over-expression category of source gene (target coverage), READ / Over-expression category of source gene (target coverage), SKCM / Over-expression category of source gene (target coverage), STAD / Over-expression category of source gene (target coverage), UCEC: same cutoff; for Over-expression category of source gene (target coverage), BRCA: BRCA = Breast cancer (N = 1104), tumors more than 2-fold above highest 75% percentile of normal tissues; for Over-expression category of source gene (target coverage), CHOL: CHOL = Cholangiocarcinoma (N = 36); for Over-expression category of source gene (target coverage), COAD: COAD = Colon and rectal adenocarcinoma (N = 462); for Over-expression category of source gene (target coverage), DLBC: DLBC = Lymphoid neoplasm diffuse large B-cell lymphoma (N = 48); for Over-expression category of source gene (target coverage), ESCA: ESCA = Esophageal cancer (N = 185); for Over-expression category of source gene (target coverage), GBM: GBM = Glioblastoma multiforme (N = 169); for Over-expression category of source gene (target coverage), KICH: KICH = Kidney chromophobe (N = 66); for Over-expression category of source gene (target coverage), KIRC: KIRC = Clear cell kidney carcinoma (N = 534); for Over-expression category of source gene (target coverage), KIRP: KIRP = Papillary kidney carcinoma (N = 291); for Over-expression category of source gene (target coverage), LAML: LAML = Acute Myeloid Leukemia (N = 173); for Over-expression category of source gene (target coverage), LGG: LGG = Lower grade glioma (N = 534); for Over-expression category of source gene (target coverage), LIHC: LIHC = Liver hepatocellular carcinoma (N = 374); for Over-expression category of source gene (target coverage), LUAD: LUAD = Lung adenocarcinoma (N = 517); for Over-expression category of source gene (target coverage), LUSC: LUSC = Lung squamous cell carcinoma (N = 503); for Over-expression category of source gene (target coverage), OV: OV = Ovarian serous cystadenocarcinoma (N = 309); for Over-expression category of source gene (target coverage), PAAD: PAAD = Pancreatic ductal adenocarcinoma (N = 179); for Over-expression category of source gene (target coverage), PRAD: PRAD = Prostate adenocarcinoma (N = 498); for Over-expression category of source gene (target coverage), READ: READ = Colon and rectal adenocarcinoma (N = 167); for Over-expression category of source gene (target coverage), SKCM: SKCM = Skin cutaneous melanoma (N = 473); for Over-expression category of source gene (target coverage), STAD: STAD = Stomach adenocarcinoma (N = 415); for Over-expression category of source gene (target coverage), UCEC: UCEC = Uterine corpus endometrial carcinoma (N = 546)
HLA-A*02 = assay: Identification and relative LC-MS quantitation of HLA-A*02-presented tumor-associated peptides on tissue samples (presentation profiles, Tables 13A, 13B, 15, FIG. 1); parameters: species or system human; key to Presentation score NHL / Presentation score CLL / Presentation score BRCA / Presentation score AML / Presentation score GB / Presentation score NSCLC / Presentation score GBC_CCC / Presentation score UEC / Presentation score MEL / Presentation score OSCAR / Presentation score GC / Presentation score UBC / Presentation score OC / Presentation score RCC / Presentation score CRC / Presentation score PCA / Presentation score HCC / Presentation score PC / Presentation score SCLC: specifically presented on tumors (++++); very highly over-presented on tumors compared to a panel of normal tissues (+++); highly over-presented on tumors compared to a panel of normal tissues (++); over-presented on tumors compared to a panel of normal tissues (+); settings: for Presentation score NSCLC: non-small cell lung cancer (N = 90) vs panel of normal tissues (N = 262); for Peptide Presentation on cancer entities: HLA-A*02-binding tumor-associated peptides
[1] = Table 13A, cancer entities on which the peptide was found presented
[2] = Table 13B, presentation on additional cancer entities

| Substance | Over-expression category of source gene (target coverage), BLCA (source genes (mRNA)) | Over-expression category of source gene (target coverage), BRCA (source genes (mRNA)) | Over-expression category of source gene (target coverage), CHOL (source genes (mRNA)) | Over-expression category of source gene (target coverage), COAD (source genes (mRNA)) | Over-expression category of source gene (target coverage), DLBC (source genes (mRNA)) | Over-expression category of source gene (target coverage), ESCA (source genes (mRNA)) | Over-expression category of source gene (target coverage), GBM (source genes (mRNA)) | Over-expression category of source gene (target coverage), KICH (source genes (mRNA)) | Over-expression category of source gene (target coverage), KIRC (source genes (mRNA)) | Over-expression category of source gene (target coverage), KIRP (source genes (mRNA)) | Over-expression category of source gene (target coverage), LAML (source genes (mRNA)) | Over-expression category of source gene (target coverage), LGG (source genes (mRNA)) | Over-expression category of source gene (target coverage), LIHC (source genes (mRNA)) | Over-expression category of source gene (target coverage), LUAD (source genes (mRNA)) | Over-expression category of source gene (target coverage), LUSC (source genes (mRNA)) | Over-expression category of source gene (target coverage), OV (source genes (mRNA)) | Over-expression category of source gene (target coverage), PAAD (source genes (mRNA)) | Over-expression category of source gene (target coverage), PRAD (source genes (mRNA)) | Over-expression category of source gene (target coverage), READ (source genes (mRNA)) | Peptide Presentation on cancer entities (HLA-A*02; [1]) | other results |
| --- | --- | --- | --- | --- | --- | --- | --- | --- | --- | --- | --- | --- | --- | --- | --- | --- | --- | --- | --- | --- | --- |
| 135: peptide found in CHUK (gene looked up) (HLSTIIHEA; listed as Homo sapiens) [compound 135] | B (>= 20% of tumors above the cutoff, but <50%) | A (>=50% of tumors above the cutoff) | A (>=50% of tumors above the cutoff) | A (>=50% of tumors above the cutoff) | A (>=50% of tumors above the cutoff) | A (>=50% of tumors above the cutoff) | A (>=50% of tumors above the cutoff) | A (>=50% of tumors above the cutoff) | A (>=50% of tumors above the cutoff) | A (>=50% of tumors above the cutoff) | A (>=50% of tumors above the cutoff) | A (>=50% of tumors above the cutoff) | B (>= 20% of tumors above the cutoff, but <50%) | A (>=50% of tumors above the cutoff) | A (>=50% of tumors above the cutoff) | A (>=50% of tumors above the cutoff) | A (>=50% of tumors above the cutoff) | A (>=50% of tumors above the cutoff) | A (>=50% of tumors above the cutoff) | NSCLC, CLL | Over-expression category of source gene (target coverage), SKCM (source genes (mRNA)): A (>=50% of tumors above the cutoff); Over-expression category of source gene (target coverage), STAD (source genes (mRNA)): A (>=50% of tumors above the cutoff); Over-expression category of source gene (target coverage), UCEC (source genes (mRNA)): B (>= 20% of tumors above the cutoff, but <50%); Presentation score CLL (HLA-A*02; HLA-A*02 peptides, chronic lymphocytic leukemia (N = 17) vs panel of normal tissues (N = 262)): ++++; Presentation score NSCLC (HLA-A*02; HLA-A*02 peptides): ++++; Peptide Presentation on cancer entities (HLA-A*02; [2]): CLL, UEC |
| 258: peptide found in BCCIP (gene looked up) (LLSERFINV; listed as Homo sapiens) [compound 258] | A (>=50% of tumors above the cutoff) | A (>=50% of tumors above the cutoff) | A (>=50% of tumors above the cutoff) | A (>=50% of tumors above the cutoff) | A (>=50% of tumors above the cutoff) | A (>=50% of tumors above the cutoff) | A (>=50% of tumors above the cutoff) | A (>=50% of tumors above the cutoff) | A (>=50% of tumors above the cutoff) | A (>=50% of tumors above the cutoff) | A (>=50% of tumors above the cutoff) | A (>=50% of tumors above the cutoff) | A (>=50% of tumors above the cutoff) | A (>=50% of tumors above the cutoff) | A (>=50% of tumors above the cutoff) | A (>=50% of tumors above the cutoff) | A (>=50% of tumors above the cutoff) | A (>=50% of tumors above the cutoff) | A (>=50% of tumors above the cutoff) | HCC, PCA | Over-expression category of source gene (target coverage), SKCM (source genes (mRNA)): A (>=50% of tumors above the cutoff); Over-expression category of source gene (target coverage), STAD (source genes (mRNA)): A (>=50% of tumors above the cutoff); Over-expression category of source gene (target coverage), UCEC (source genes (mRNA)): A (>=50% of tumors above the cutoff); Presentation score HCC (HLA-A*02; HLA-A*02 peptides, hepatocellular carcinoma (N = 16) vs panel of normal tissues (N = 262)): ++++; Presentation score PCA (HLA-A*02; HLA-A*02 peptides, prostate cancer and benign prostate hyperplasia (N = 39) vs panel of normal tissues (N = 262)): ++++ |
| 260: peptide found in PLAA (gene looked up) (ILLEKILSL; listed as Homo sapiens) [compound 260] |  | C (>=5% of tumors above the cutoff, but <20%) |  |  |  |  |  |  |  |  |  |  |  |  |  |  |  |  | C (>=5% of tumors above the cutoff, but <20%) | NSCLC, CRC | Presentation score CRC (HLA-A*02; HLA-A*02 peptides, colorectal cancer (N = 28) vs panel of normal tissues (N = 262)): ++; Presentation score NSCLC (HLA-A*02; HLA-A*02 peptides): +++; Peptide Presentation on cancer entities (HLA-A*02; [2]): GC, HCC, PCA, CLL, OC, SCLC, UEC, BRCA, GBC_CCC, MEL, PC, AML, NHL, HNSCC |

For part of these data: Expression grades refer to the transcript from which the peptide derives; gene names, where given, were looked up from the sequence.
